Test results from publication PMC10167121, “Completing the TRB family: newly characterized members show ancient evolutionary origins and distinct localization, yet similar interactions”.
Results are given in words; binding and its absence hold for the method and conditions named. For some of these results: In cells and extracts the contact can be indirect. Some entries that bind do so weakly or less than the wild type. Tags and fused reporters may be left off the sequences shown.

T1: TRB1 fused with nYFP or cYFP (BiFC construct) (A. thaliana) (UniProt Q8VWK4)
T1 sequence: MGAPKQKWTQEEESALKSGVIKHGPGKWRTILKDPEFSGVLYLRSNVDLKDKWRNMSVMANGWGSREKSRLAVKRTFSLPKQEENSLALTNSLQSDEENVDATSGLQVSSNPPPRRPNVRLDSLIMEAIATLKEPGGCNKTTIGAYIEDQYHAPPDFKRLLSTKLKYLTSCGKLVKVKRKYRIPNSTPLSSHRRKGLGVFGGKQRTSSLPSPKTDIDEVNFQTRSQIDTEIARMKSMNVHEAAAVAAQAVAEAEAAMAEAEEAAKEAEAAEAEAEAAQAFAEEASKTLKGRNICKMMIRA

T2: TRB2 fused with nYFP or cYFP (BiFC construct) (A. thaliana) (UniProt Q9FJW5)
T2 sequence: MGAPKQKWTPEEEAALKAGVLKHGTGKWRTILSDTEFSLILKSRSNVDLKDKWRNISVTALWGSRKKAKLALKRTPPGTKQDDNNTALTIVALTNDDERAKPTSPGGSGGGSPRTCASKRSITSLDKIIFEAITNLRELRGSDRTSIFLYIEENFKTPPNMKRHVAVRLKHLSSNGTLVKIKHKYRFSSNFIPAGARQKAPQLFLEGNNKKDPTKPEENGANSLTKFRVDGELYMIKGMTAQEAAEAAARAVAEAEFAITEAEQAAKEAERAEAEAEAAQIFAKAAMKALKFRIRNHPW

B1: Telomere repeat binding protein 1 (TRB1), yeast two-hybrid fusion (protein, UniProt Q8VWK4 1-300)
chain: T1 sequence
B2: TRB1 fused with nYFP or cYFP (BiFC construct) (protein, UniProt Q8VWK4 1-300)
chain: T1 sequence
B3: TRB2 fused with nYFP or cYFP (BiFC construct) (protein, UniProt Q9FJW5 1-299)
chain: T2 sequence
B4: TRB3 fused with nYFP or cYFP (BiFC construct) (protein, UniProt Q9M2X3 1-295)
chain: MGAPKLKWTPEEETALKAGVLKHGTGKWRTILSDPVYSTILKSRSNVDLKDKWRNISVTALWGSRKKAKLALKRTPLSGSRQDDNATAITIVSLANGDVGGQQIDAPSPPAGSCEPPRPSTSVDKIILEAITSLKRPFGPDGKSILMYIEENFKMQPDMKRLVTSRLKYLTNVGTLVKKKHKYRISQNYMAEGEGQRSPQLLLEGNKENTPKPEENGVKNLTKSQVGGEVMIMGMTEKEAAAAAARAVAEAEFAMAEAEEAAREADKAEAEAEAAHIFAKAAMKAVKYRMHSQTR

Experiments:
[1] = molecular target: Telomere repeat binding protein 1 (TRB1), yeast two-hybrid fusion (A. thaliana) (UniProt Q8VWK4); assay: two-hybrid; Matchmaker GAL4-based system, S. cerevisiae PJ69-4a; growth on SD -Leu -Trp -His (with or without 1 mM or 3 mM 3-AT) or SD -Leu -Trp -Ade at 30 °C; empty vector as negative control
[2] = molecular target: T1, TRB1 fused with nYFP or cYFP (BiFC construct) (A. thaliana); assay: split reporter; BiFC with nYFP/cYFP fusions from pBiFCt-2in1 vectors (internal marker mRFP1), transient Agrobacterium-mediated expression in N. benthamiana leaf epidermal cells, confocal microscopy
[3] = molecular target: T2, TRB2 fused with nYFP or cYFP (BiFC construct) (A. thaliana); assay: as above
[4] = molecular target: TRB3 fused with nYFP or cYFP (BiFC construct) (A. thaliana) (UniProt Q9M2X3); assay: as above

Row | Binder | binding [1] | binding [2] | binding [3] | binding [4]
1 | B1 | binds | – | – | –
2 | B2 | – | binds | – | –
3 | B3 | – | binds | binds | –
4 | B4 | – | binds | binds | binds
